Assay results: PubChem BioAssay AID330 (DTP/NCI, 2004)
The list is a part of this screen's results and no random one: it gathers tests that were run many times, whatever their T/C, doses with no T/C, and many T/C values between a quarter and a half above the control. Further doses and runs are listed elsewhere. T/C is the treated group as % of the vehicle group. Some entries give survivors of the animals treated and no T/C: the source files T/C as zero there, which appears to mark a toxic dose or a test without result, not a measured value. Some survivor counts are full or nearly so, which does not show that the dose was tolerated: the source hardly ever lists a survival T/C far under the control, and the zero likely stands for such cases as well. Survivors were counted at the toxicity check, usually on the fifth day, unless a day is given; later deaths do not show. Schedule codes are those of the source, taken here to give the interval after Q, in days (D) or hours (H), and the number of doses after X. Some doses were run more than once; their values stand side by side, smallest first. Where survival is the endpoint, the PubChem record calls one and a half times the control and up active, and a quarter to a half above the control has no call in these data; cut-offs in other NCI protocols can differ. Some T/C values are followed by the survivors on the day toxicity was checked, most often the fifth; without a count, all were alive then.

Tested on: P388 leukemia ip, CD2F1 mice, survival T/C
Test: NCI In Vivo Anticancer Drug Screen. Data for tumor model P388 Leukemia (intraperitoneal) in CD2F1 (CDF1) mice
Conditions: T/C endpoint: median survival time, higher T/C = longer survival
[1] = dose: 200.0 mg/kg/injection, schedule: Q01DX009 (ip), vehicle: saline
[2] = dose: 200.0 mg/kg/injection, schedule: Q01DX005 (ip), vehicle: saline with Tween-80
[3] = dose: 200.0 mg/kg/injection, schedule: Q04DX003 (ip), vehicle: saline with Tween-80
[4] = dose: 400.0 mg/kg/injection, schedule: Q04DX003 (ip), vehicle: saline with Tween-80

With `CC(=O)C1(O)Cc2c(O)c3c(c(O)c2C(OC2CC(N)C(O)C(C)O2)C1)C(=O)c1ccccc1C3=O` (configuration not stated) the T/C (dose: 0.03 mg/kg/injection, schedule: Q01DX009 (ip), vehicle: water) was 131 % of control, the T/C (dose: 0.05 mg/kg/injection, schedule: Q01DX009 (ip), vehicle: water, evaluated on day 30) was 133 % of control and the T/C (dose: 0.05 mg/kg/injection, schedule: Q01DX009 (ip), vehicle: water, evaluated on day 45) was 140 % of control. For the same compound, the T/C (dose: 0.13 mg/kg/injection, schedule: Q04DX003 (ip), vehicle: water) was 147 % of control, the survivor count (dose: 0.4 mg/kg/injection, schedule: Q01DX009 (ip), vehicle: water) was 6 of 6 and the T/C (dose: 0.6 mg/kg/injection, schedule: Q04DX003 (ip), vehicle: water, evaluated on day 30) was 127 % of control. For the same compound, the T/C (dose: 0.6 mg/kg/injection, schedule: Q04DX003 (ip), vehicle: water, evaluated on day 45) was 145 % of control [5 of 6 alive], the survivor count (dose: 0.8 mg/kg/injection, schedule: Q01DX009 (ip), vehicle: water) was 5 of 6 and 6 of 6 and the survivor count (dose: 1.0 mg/kg/injection, schedule: Q04DX003 (ip), vehicle: water) was 8 of 8. The T/C (dose: 1.2 mg/kg/injection, schedule: Q04DX003 (ip), vehicle: water, evaluated on day 30) was 136 % of control, the T/C (dose: 1.2 mg/kg/injection, schedule: Q04DX003 (ip), vehicle: water, evaluated on day 45) was 138 % of control and the survivor count (dose: 1.56 mg/kg/injection, schedule: Q01DX009 (ip), vehicle: water) was 4 of 6 and 6 of 6. The survivor count (dose: 1.6 mg/kg/injection, schedule: Q01DX009 (ip), vehicle: water) was 4 of 6 and 5 of 6, the survivor count (dose: 2.0 mg/kg/injection, schedule: Q01DX005 (ip), vehicle: water) was 6 of 6 and the survivor count (dose: 2.4 mg/kg/injection, schedule: Q01DX001 (ip), vehicle: water) was 6 of 6. The survivor count (dose: 3.13 mg/kg/injection, schedule: Q01DX009 (ip), vehicle: water) was 3 of 6 and 6 of 6, the survivor count (dose: 3.2 mg/kg/injection, schedule: Q01DX001 (ip), vehicle: water) was 3 of 6 and the survivor count (dose: 4.0 mg/kg/injection, schedule: Q01DX005 (ip), vehicle: water) was 4 of 6. For the same compound, the survivor count (dose: 4.2 mg/kg/injection, schedule: Q01DX001 (ip), vehicle: water) was 3 of 6, the survivor count (dose: 5.6 mg/kg/injection, schedule: Q01DX001 (ip), vehicle: water) was 5 of 6 and the survivor count (dose: 6.25 mg/kg/injection, schedule: Q01DX009 (ip), vehicle: water) was 0 of 6. For the same compound, the survivor count (dose: 7.5 mg/kg/injection, schedule: Q01DX001 (ip), vehicle: water) was 2 of 6, the survivor count (dose: 10.0 mg/kg/injection, schedule: Q01DX001 (ip), vehicle: water) was 1 of 6 and the survivor count (dose: 12.5 mg/kg/injection, schedule: Q01DX009 (ip), vehicle: water) was 0 of 6. For the same compound, the survivor count (dose: 16.0 mg/kg/injection, schedule: Q01DX005 (oral), vehicle: water) was 6 of 6 and the survivor count (dose: 25.0 mg/kg/injection, schedule: Q01DX009 (ip), vehicle: water) was 0 of 6.

For `CCC(=C(c1ccc(OCCN(C)C)cc1)c1cccc(O)c1)c1ccccc1` (mixture of isomers), the survivor count (dose: 240.0 mg/kg/injection, schedule: Q01DX005 (ip), vehicle: Klucel (hydroxypropylcellulose) (HPC)) was 6 of 6.

For `CN(C)Cc1cccc(CN(C)C)[c]1[Sn]([Br])([c]1ccccc1)[c]1ccccc1`, the T/C (dose: 6.25 mg/kg/injection, schedule: Q01DX009 (ip), vehicle: saline) was 129 and 134 % of control, the T/C (dose: 12.5 mg/kg/injection, schedule: Q01DX009 (ip), vehicle: saline) was 129 % of control and the survivor count (dose: 25.0 mg/kg/injection, schedule: Q01DX009 (ip), vehicle: saline) was 0 of 6. For the same compound, the survivor count (dose: 50.0 mg/kg/injection, schedule: Q01DX009 (ip), vehicle: saline) was 0 of 6, the survivor count (dose: 100.0 mg/kg/injection, schedule: Q01DX009 (ip), vehicle: saline) was 0 of 6 and the survivor count [1] was 0 of 6.

With `CC1(C)CCCC2(C)OC(=O)C=C12` (configuration not stated) the survivor count (dose: 12.5 mg/kg/injection, schedule: Q01DX005 (ip), vehicle: distilled water + Tween-80) was 3 of 6, the survivor count (dose: 25.0 mg/kg/injection, schedule: Q01DX005 (ip), vehicle: distilled water + Tween-80) was 0 of 6 and the survivor count (dose: 50.0 mg/kg/injection, schedule: Q01DX005 (ip), vehicle: distilled water + Tween-80) was 0 of 6. The survivor count (dose: 100.0 mg/kg/injection, schedule: Q01DX005 (ip), vehicle: distilled water + Tween-80) was 0 of 6 and the survivor count (dose: 200.0 mg/kg/injection, schedule: Q01DX005 (ip), vehicle: distilled water + Tween-80) was 0 of 6.

With `CCC(C)C(NC(=O)C(Cc1cnc[nH]1)N(C(=O)OCc1ccccc1)C(=O)OCc1ccccc1)C(=O)OCc1ccccc1` (configuration not stated) the survivor count [2] was 3 of 5.

In the case of `Nc1nc(-c2ccncc2)cc(-c2cc(-c3ccncc3)nc(N)n2)n1`, the survivor count (dose: 240.0 mg/kg/injection, schedule: Q01DX005 (ip), vehicle: saline) is reported as 2 of 6.

With `COCC(O)C(NC(=O)CCl)C(=O)O` (configuration not stated) the survivor count [1] was 5 of 6.

`COC(=O)c1nc(N)nc(C(=O)OC)c1C(=O)c1ccc(C)cc1` was tested, and the survivor count (dose: 240.0 mg/kg/injection, schedule: Q01DX005 (ip), vehicle: saline with Tween-80) was 0 of 6.

With `NC(=O)c1c(N)ncnc1N` the survivor count (dose: 100.0 mg/kg/injection, schedule: Q04DX002 (ip), vehicle: saline with Tween-80) was 1 of 6, the survivor count (dose: 200.0 mg/kg/injection, schedule: Q04DX002 (ip), vehicle: saline with Tween-80) was 0 of 6 and the survivor count (dose: 400.0 mg/kg/injection, schedule: Q04DX002 (ip), vehicle: saline with Tween-80) was 0 of 6.

`C=CCN(CC=C)P(=O)(N1CC1C)N1CC1C` (configuration not stated) was tested, and the T/C (dose: 2.5 mg/kg/injection, schedule: Q01DX009 (ip), vehicle: saline) was 149 % of control, the survivor count (dose: 10.0 mg/kg/injection, schedule: Q01DX009 (ip), vehicle: saline) was 6 of 6 and the survivor count (dose: 20.0 mg/kg/injection, schedule: Q01DX009 (ip), vehicle: saline) was 4 of 6.

For `[Cu+2].[NH-]C(=O)NC([NH-])=O.[NH-]C(=O)NC([NH-])=O`, the survivor count (dose: 25.0 mg/kg/injection, schedule: Q01DX005 (ip), vehicle: saline with Tween-80) was 0 of 5, the survivor count (dose: 50.0 mg/kg/injection, schedule: Q01DX005 (ip), vehicle: saline with Tween-80) was 0 of 5 and the survivor count (dose: 100.0 mg/kg/injection, schedule: Q01DX005 (ip), vehicle: saline with Tween-80) was 0 of 5. For the same compound, the survivor count [2] was 0 of 5.

With `CCOC(=O)/C(C#N)=C\c1ccc(/C=C(\C#N)C(=O)OCC)cc1` the survivor count [3] was 4 of 6 and the survivor count [4] was 4 of 6.

With `Cc1ccc2c(c1)sc1nncn12` the survivor count (dose: 200.0 mg/kg/injection, schedule: Q01DX009 (ip), vehicle: Klucel (hydroxypropylcellulose) (HPC)) was 0 of 6.

With `NC(=O)N/N=C(/Cc1nc2ccccc2nc1C/C(=N/NC(N)=O)c1cccc2ccccc12)c1cccc2ccccc12` the survivor count (dose: 120.0 mg/kg/injection, schedule: Q01DX005 (ip), vehicle: saline with Tween-80) was 6 of 6.

In the case of `NC(=O)CCSC1=CC(=O)c2ccccc2C1=O`, the survivor count (dose: 25.0 mg/kg/injection, schedule: Q04DX003 (ip), vehicle: saline with Tween-80) is reported as 0 of 6, the survivor count (dose: 50.0 mg/kg/injection, schedule: Q04DX003 (ip), vehicle: saline with Tween-80) is reported as 0 of 6 and the survivor count (dose: 100.0 mg/kg/injection, schedule: Q04DX003 (ip), vehicle: saline with Tween-80) is reported as 0 of 4. The survivor count [3] was 0 of 4 and the survivor count [4] was 0 of 4.

In the case of `CN(C)CCCNc1cccc2c1C(=O)c1cccc(NCCCN(C)C)c1C2=O`, the survivor count (dose: 100.0 mg/kg/injection, schedule: Q01DX005 (ip), vehicle: water) is reported as 2 of 3, the survivor count (dose: 100.0 mg/kg/injection, schedule: Q01DX009 (ip), vehicle: water) is reported as 3 of 6 and the survivor count (dose: 120.0 mg/kg/injection, schedule: Q01DX009 (ip), vehicle: saline) is reported as 6 of 6. The survivor count (dose: 200.0 mg/kg/injection, schedule: Q01DX005 (ip), vehicle: water) was 0 of 6, the survivor count (dose: 200.0 mg/kg/injection, schedule: Q01DX009 (ip), vehicle: water) was 0 of 6 and the survivor count (dose: 400.0 mg/kg/injection, schedule: Q01DX009 (ip), vehicle: water) was 0 of 6.
